PubChem BioAssay AID686937, Drosophila RNAi Screening Center – 2013
Test: 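Genes in the fly needed for secretion of protein constitutively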 (primary screen). System: Drosophila S2 cells expressing secreted horseradish peroxidase. Reagent: long dsRNA against Drosophila genes. Time to read-out: about 5.5 days (5 days dsRNA, then 12 h reporter induction). Conditions: reporter expression induced after 5 days of dsRNA, read 12 h later; inducer not stated. Measurement: 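Chemiluminescent measurement of peroxidase in the medium 12 h after reporter induction, following 5 days of dsRNA, given as a z-score per plate; higher means more secretion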. Reading the numbers: z-score: higher = more reporter secreted into medium.
In all, the deposit lists about 23,000 reagents; below is a random part of those with a known target gene and a result. 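Reduced-secretion tags in replicate 1 do not always agree with the z-scores; no criterion for assigning the tags was given.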 Names joined by + are all predicted targets of the reagent. Not all columns of the deposit are shown. Not stated in the record: the amount of reagent.

| predicted target | dsRNA | z-score, replicate 1 | z-score, replicate 2 |
| --- | --- | --- | --- |
| east | DRSC18770 | 0.47 | 0.33 |
| CG45067 | DRSC08414 | 0.24 | 0.37 |
| CG9643 | DRSC00722 | -0.22 | 0.35 |
| CG33964 + CG13175 | DRSC06300 | 0.31 | 0.29 |
| CG33964 + CG13175 | DRSC06301 | 0.17 | 0.23 |
| CG33964 + CG13175 | DRSC07184 | 0.24 | 0.19 |
| CG14401 | DRSC02385 | 0.31 | 0.25 |
| CG14401 | DRSC21710 | 1.07 | 2.52 |
| mEFTu2 | DRSC06163 | 0.07 | -0.2 |
| CG3008 | DRSC00560 | 0.19 | 0.28 |
| mRpL49 | DRSC19908 | 0.18 | -0.13 |
| Sems | DRSC11626 | 0.34 | 0.5 |
| ND-49L | DRSC14437 | 0.06 | -0.06 |
| mei-9 | DRSC18792 | 0.34 | 0.48 |
| TyrRS | DRSC10430 | 0.11 | 0.15 |
| lncRNA:CR40053 | DRSC20833 | 0.03 | 0.34 |
| ClC-b | DRSC07220 | 0.3 | 0.26 |
| CG4477 | DRSC10425 | 0.53 | 0.58 |
| Tbce | DRSC04897 | 0.34 | 0.43 |
| CG34377 | DRSC13559 | 0.53 | 0.02 |
| CG34377 | DRSC14708 | 0.31 | 0.44 |
| CG34377 | DRSC14709 | 0.39 | 0.39 |
| CG34377 | DRSC14710 | 0.23 | 0.38 |
| CG34377 | DRSC14711 | 0.22 | -0.22 |
| Cpr51A | DRSC05969 | 0.13 | 0.26 |
| T48 | DRSC16878 | 0.21 | 0.32 |
| Cyp6a14 | DRSC07376 | 0.24 | 0.29 |
| DIP2 | DRSC08582 | 0.08 | 0.15 |
| Rbf | DRSC18704 | 0.06 | 0.28 |
| Pk34A | DRSC03398 | 0.15 | 0.07 |
| CG30376 | DRSC05086 | 0.8 | – |
| zf30C | DRSC03641 | 0.1 | 0.37 |
| TotE | DRSC21355 | 0.41 | -0.86 |
| SrpRbeta | DRSC21668 | -0.61 | -0.31 |
| CG14892 | DRSC15014 | -0.71 | 0.11 |
| Or74a | DRSC11245 | 0.06 | 0 |
| CG3513 | DRSC00608 | 0.08 | 0.31 |
| HINT1 | DRSC00548 | 0.26 | 0.31 |
| bc10 | DRSC11326 | 0.06 | 0.24 |
| CG42266 | DRSC21577 | 0.06 | 0.8 |
| CG42266 | DRSC21957 | 1.09 | 1.24 |
| Cad87A | DRSC16161 | 0.36 | 0.33 |
| mi | DRSC04498 | 0.12 | 0.25 |
| CG13601 | DRSC14604 | 0.18 | -0.32 |
| CG12236 | DRSC17830 | -4.18 | -1.79 |
| CG12236 | DRSC17831 | 0.35 | 0.39 |
| TyrR | DRSC13259 | 0.35 | 0.61 |
| TyrR | DRSC16242 | 0.43 | 0.57 |
| unc-5 | DRSC05545 | 0.16 | -0.06 |
| unc-5 | DRSC07711 | 0.27 | 0.38 |
| unc-5 | DRSC07712 | 0.3 | 0.41 |
| Or35a | DRSC03389 | -0.09 | 0.11 |
| bnk | DRSC16912 | 0.38 | 0.4 |
| CG11413 + CG4622 | DRSC04109 | 0.16 | 0.33 |
| asRNA:CR43259 + CG31089 | DRSC15934 | 0.28 | 0.3 |
| PEK | DRSC12361 | 0.04 | 0.26 |
| CG8562 | DRSC10995 | -0.05 | 0.14 |
| CG16959 | DRSC10230 | 0.31 | 0.29 |
| CG12158 | DRSC22933 | -0.07 | -0.29 |
| galectin | DRSC00305 | 0.35 | 0.45 |
| Ugt36A1 + CG15418 | DRSC00432 | 0.14 | 0.5 |
| Pof | DRSC04405 | 0.31 | 0.25 |
| CG8607 | DRSC11012 | -0.04 | 0.31 |
| CG14658 | DRSC12244 | 0.05 | -0.7 |
| CG3909 | DRSC14150 | 0.18 | -0.54 |
| Rab40 | DRSC19820 | -0.38 | -0.21 |
| Ptth | DRSC00356 | 0.13 | 0.14 |
| msd1 | DRSC08383 | -0.34 | 0.09 |
| CG14495 | DRSC06466 | -4.1 | -0.22 |
| TTLL3B | DRSC02133 | 0.2 | -0.41 |
| CG8209 | DRSC10970 | 0.23 | 0.16 |
| psh | DRSC19990 | 0.34 | 0.43 |
| Sema5c | DRSC11279 | 0.22 | 0.13 |
| CG10183 | DRSC14203 | 0.43 | 0.44 |
| GAA1 | DRSC18267 | 0.51 | 0.28 |
| CG34194 | DRSC05666 | -3.24 | -1.19 |
| CG33791 + CG12105 + CG18170 | DRSC08387 | 0.45 | 0.34 |
| MED6 | DRSC16500 | -3.35 | -2.91 |
| Pak3 | DRSC15017 | 0.12 | 0.24 |
| Afg3l2 | DRSC10657 | -0.16 | -0.17 |
| CG4375 | DRSC00653 | 0.12 | 0.31 |
| Gdap2 | DRSC06789 | 0.37 | 0.42 |
| Gdap2 | DRSC06790 | 0.28 | 0.23 |

Laid out differently: results already given.
{"predicted target":"T48","dsRNA":"DRSC16878","z-score, replicate 1":0.21,"z-score, replicate 2":0.32}
{"predicted target":"Cyp6a14","dsRNA":"DRSC07376","z-score, replicate 1":0.24,"z-score, replicate 2":0.29}
{"predicted target":"DIP2","dsRNA":"DRSC08582","z-score, replicate 1":0.08,"z-score, replicate 2":0.15}
{"predicted target":"Rbf","dsRNA":"DRSC18704","z-score, replicate 1":0.06,"z-score, replicate 2":0.28}
{"predicted target":"Pk34A","dsRNA":"DRSC03398","z-score, replicate 1":0.15,"z-score, replicate 2":0.07}
{"predicted target":"CG30376","dsRNA":"DRSC05086","z-score, replicate 1":0.8}
{"predicted target":"zf30C","dsRNA":"DRSC03641","z-score, replicate 1":0.1,"z-score, replicate 2":0.37}
{"predicted target":"TotE","dsRNA":"DRSC21355","z-score, replicate 1":0.41,"z-score, replicate 2":-0.86}
{"predicted target":"SrpRbeta","dsRNA":"DRSC21668","z-score, replicate 1":-0.61,"z-score, replicate 2":-0.31}
{"predicted target":"CG14892","dsRNA":"DRSC15014","z-score, replicate 1":-0.71,"z-score, replicate 2":0.11}
{"predicted target":"Or74a","dsRNA":"DRSC11245","z-score, replicate 1":0.06,"z-score, replicate 2":0}
{"predicted target":"CG3513","dsRNA":"DRSC00608","z-score, replicate 1":0.08,"z-score, replicate 2":0.31}
{"predicted target":"HINT1","dsRNA":"DRSC00548","z-score, replicate 1":0.26,"z-score, replicate 2":0.31}
